From patent publication US10722484B2, “Methods of cancer treatment” (K-Gen, Inc., priority 2016, dated 2020)
For some of these results: At least one compound was matched to its structure with a doubt left. Some of these results come from one statement about several compounds together.

Columns and labels:
[1] = system: HL-60 human promyelocytic leukemia cells; assay: Combination viability/proliferation assays
[2] = system: MV-4-11 human myelomonocytic leukemia; assay: Combination viability/proliferation assays
Panc2.13 = assay: Combination viability/proliferation assays; format: cell-based; conditions: agent in combination with K101A
Experimental: (§1) A 96-well MacSynergy II format for combination test was also used. […] The analysis was done with the SQRT(Data) scale and the four parameter Hill curve was fitted using XLfit5.1 (the MacSynergy II Excel Spreadsheet) for the inhibition data. Synergy (positive number) or Antagonism (negative number) volumes were calculated. […] Three-dimensional MacSynergy II graphs were generated where positive values indicated synergism and negative values indicated antagonism.

[3] = system: A549 lung cancer cell line; assay: Combination viability/proliferation assays (384-well IC50 ratio, 96-well MacSynergy II); format: cell-based
Experimental: as §1

MiaPaCa-2 = assay: Combination viability/proliferation assays; format: cell-based; conditions: with K101A or K102
Experimental: as §1

[4] = system: Namalwa (Burkitt's lymphoma); assay: Combination viability/proliferation assays; conditions: K101A (0.1 μM) or K102 (0.001 μM)

SMILES: Cc1nc(Nc2ncc(C(=O)Nc3c(C)cccc3Cl)s2)cc(N2CCN(CCO)CC2)n1 [Dasatinib]
- effect in combination with K101A and K102 [1]: strong synergy
- effect in combination with K101A and K102 [2]: synergized moderately

SMILES: CC(=O)Nc1cccc(-n2c(=O)n(C3CC3)c(=O)c3c(Nc4ccc(I)cc4F)n(C)c(=O)c(C)c32)c1 [Trametinib]
- Combination effect, Panc2.13: K101A (Panc2.13): Antagonism
- effect in combination with the PKC activator compounds in inhibiting the growth of A549 cells ([3]; PKC activator compounds (K101A, K101E, K102)): strong antagonistic effect
- Combination in A549: K101A (synergism/antagonism) ([3]; agent assayed in combination with K101A, A549, * 2-3 concentrations, # full concentration ranges): Antagonism (strong
- Combination in A549: K101E (synergism/antagonism) ([3]; agent assayed in combination with K101E, A549): None
- Combination in A549: K102 (synergism/antagonism) ([3]; agent assayed in combination with K102, A549, * 2-3 concentrations, # full concentration ranges): Antagonism (strong)

SMILES: NC1(c2ccc(-c3nc4ccn5c(=O)[nH]nc5c4cc3-c3ccccc3)cc2)CCC1 [MK2206, 8-[4-(1-aminocyclobutyl)phenyl]-9-phenyl-2H-[1,2,4]triazolo[3,4-f][1,6]naphthyridin-3-one]
- synergy volumes in the MacSynergy combination experiments (MiaPaCa-2): > 100

SMILES: C=CC(=O)N1CCC[C@@H](n2nc(-c3ccc(Oc4ccccc4)cc3)c3c(N)ncnc32)C1 [Ibrutinib]
- effect in combination with K101A and K102 [1]: synergized
- effect in combination with K101A or K102 [4]: Minor synergy
